Results taken from patent US4966962A, “Reverse analogue of actinomycin D” (Trustees of Boston University, priority 1988, dated 1990).
For at least one compound, name, drawing or mass did not settle the structure.

Tested on: CX-1 human colon adenocarcinoma
Experiment: Chemotherapy of human colon CX-1 tumor heterotransplanted in nude mice
Format: in vivo, human tumor in athymic mice
Description: Tables XI and XII show the effectiveness of SAD (2) and RAD (3b and 3c) against CX-1 human colon adenocarcinoma heterotransplanted into athymic mice, with three iv treatments with drugs on a weekly schedule starting on the 15th day of tumor transplant. AMD and the analogues were tested at doses of 45 and 60 ug/kg.
^a -, % T/C high than 50%; ±, % T/C close to 50%; +, % T/C from 50
to 35%; ++, % T/C from 35% to 20%; +++, % T/C lower than 20%; ++++,
regression of the tumor to a volume lower than 10% of the volume at the
start of treatment. ^b Statistically significant as evaluated by the
^a Intravenous treatment, once a week for three weeks; eight mice per
group. ^b TST; number of days between tumor transplant and starting o
treatment. ^c Numbers in parentheses; day of observation after the […]

SMILES | tumor regression (% T/C class) (expt 1, dose 45 μg/kg) | tumor regression (% T/C class) (expt 1, dose 60 μg/kg) | tumor regression (% T/C class) (expt 2, dose 45 μg/kg) | tumor regression (% T/C class) (expt 2, dose 60 μg/kg) | tumor regression (% T/C class) (expt 3, dose 45 μg/kg) | tumor regression (% T/C class) (expt 3, dose 60 μg/kg)
Cc1c2oc3c(C)c4oc(-c5ccccc5)nc4c(C(=O)N[C@@H]4C(=O)N[C@H](C(C)C)C(=O)N5CCC[C@H]5C(=O)N(C)CC(=O)N(C)[C@@H](C(C)C)C(=O)O[C@@H]4C)c3nc-2c(C(=O)N[C@@H]2C(=O)N[C@H](C(C)C)C(=O)N3CCC[C@H]3C(=O)N(C)CC(=O)N(C)[C@@H](C(C)C)C(=O)O[C@@H]2C)c(N)c1=O [RAD II (3b)] | + (% T/C from 50 to 35%) | ++ (% T/C from 35% to 20%) | ± | + (% T/C from 50 to 35%) | + (% T/C from 50 to 35%) | ++ (% T/C from 35% to 20%)
Cc1c2oc3c(C)c(O)c(N)c(C(=O)N[C@@H]4C(=O)N[C@H](C(C)C)C(=O)N5CCC[C@H]5C(=O)N(C)CC(=O)N(C)[C@@H](C(C)C)C(=O)O[C@@H]4C)c3nc-2c(C(=O)N[C@@H]2C(=O)N[C@H](C(C)C)C(=O)N3CCC[C@H]3C(=O)N(C)CC(=O)N(C)[C@@H](C(C)C)C(=O)O[C@@H]2C)c(N)c1=O [SAD (2)] | +++ (% T/C lower than 20%) | +++ (% T/C lower than 20%) | + (% T/C from 50 to 35%) | ++ (% T/C from 35% to 20%) | ++ (% T/C from 35% to 20%) | +++ (% T/C lower than 20%)
Cc1c2oc3c(C)c4oc(CC(=O)NCCCCN)nc4c(C(=O)N[C@@H]4C(=O)N[C@H](C(C)C)C(=O)N5CCC[C@H]5C(=O)N(C)CC(=O)N(C)[C@@H](C(C)C)C(=O)O[C@@H]4C)c3nc-2c(C(=O)N[C@@H]2C(=O)N[C@H](C(C)C)C(=O)N3CCC[C@H]3C(=O)N(C)CC(=O)N(C)[C@@H](C(C)C)C(=O)O[C@@H]2C)c(N)c1=O [RAD III (3c)] | ++++ (regression of the tumor to a volume lower than 10% of the volume at the start of treatment) | ++++ (regression of the tumor to a volume lower than 10% of the volume at the start of treatment) | ++ (% T/C from 35% to 20%) | ++ (% T/C from 35% to 20%) | +++ (% T/C lower than 20%) | ++++ (regression of the tumor to a volume lower than 10% of the volume at the start of treatment)
